No constants are given. Whether binding was seen depends on the method and setting.
Experiments:
[1] = target: recombinant PCNA protein (N-terminal (His)6-PCNA) (human) (UniProt P12004); assay: fluorescence polarisation; competition: increasing unlabeled peptide with 50 nM FITC-PL peptide and 1 µM PCNA (monomer concentration); 25 mM HEPES pH 7.4, 10% glycerol, 0.01% Triton X-100; 30 min at room temperature, read at 30°C; Ki from a modified Cheng-Prusoff equation; both purified
[2] = target: T1, recombinant PCNA protein (human, UniProt P12004 1-261); assay: fluorescence polarisation; competition: increasing unlabeled 12-mer peptide against 50 nM N-terminal FITC-PL peptide and 1 µM PCNA (monomer concentration); 25 mM HEPES pH 7.4, 10% glycerol, 0.01% Triton X-100; 30 min at room temperature, read at 30°C; fraction of FITC-PL bound fitted to the complete (Eq. 6) or incomplete (Eq. 7, four-state) competition model of Roehrl et al.; estimated dissociation constants; both purified
T1 construct: PCNA (proliferating cell nuclear antigen), human; The vector has a TEV protease site after the (His)6 tag, and no cleavage is described; also called (His)6-PCNA; source: E. coli BL21(DE3), purified (Ni-NTA, dialysis)

Amino acid sequences for entries named in this document (tags omitted).
UniProt P12004: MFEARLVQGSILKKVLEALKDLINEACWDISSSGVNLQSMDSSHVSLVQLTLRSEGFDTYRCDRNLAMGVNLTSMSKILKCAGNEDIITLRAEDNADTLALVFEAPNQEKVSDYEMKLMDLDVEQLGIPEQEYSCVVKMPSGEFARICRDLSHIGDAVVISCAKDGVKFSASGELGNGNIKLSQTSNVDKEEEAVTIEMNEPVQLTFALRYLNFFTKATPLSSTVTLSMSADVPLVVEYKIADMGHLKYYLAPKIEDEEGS

For GVQRNHETAFQG [Mcl-1 12-mer PIP Box-like peptide mimic], the binding [1] was “no binding”.

For GVQRNHETAFQG [Mcl-1 12-mer PIP Box-like peptide], the binding [2] was “no binding”.

Reference: paper PMC4103810, “Flexibility of PCNA-Protein Interface Accommodates Differential Binding Partners” (PLoS ONE, 2014)
